Test results taken from patent US11076593B2, “Reperfusion with omega-3 glycerides promotes donor organ protection for transplantation” (The Trustees of Columbia University in the City of New York, priority 2013, dated 2021).
“Also recorded” adds a separate entry of the source. For at least one compound, name, drawing or mass did not settle the structure.

Tested on: isolated C57BL/6 mouse hearts
Experiment: Ex vivo I/R: release of injury markers (LDH, creatine kinase) into the perfusate
Settings: for LDH release compared to n-3 TG I/R (effect on n-3 TG protection): inhibitor or agonist together with n-3 TG, 10 μM LY-294002, Rosiglitazone 6 mg/kg IP 30 min before
Description: Evidence supporting the methods and products of the invention has been established in an ex vivo model using hearts rapidly removed from ketamine/xylazine anesthetized 12-14 weeks old C57BL/6 mice weighing between 25-30 g that were retrograde perfused in a non-recirculating mode, using an isovolumic perfusion system through the well-known Langendorf System (FIG. 1). In this system isolated mouse hearts were initially perfused with a perfusion buffer containing KREB's solution containing (in mM) the following: 118 NaCl, 4.7 KCl, 2.5 CaCl2, 1.2 MgCl2, 25 NaHCO3, 5 Glucose, 0.4 Palmitate, 0.4 BSA, and 70 mU/1 insulin. Perfusion pO2 at a pressure greater than 600 mmHg and a flow speed of 2.5 ml/min was maintained in the oxygenation chamber. The experimental plan included an equilibration baseline period of 30 min normoxic perfusion followed by 30 min global zero-flow ischemia (induced ischemia) and 60 min of reperfusion. The flow rate was 2.5 ml/min. The perfusion apparatus was tightly temperature controlled for maintaining heart temperatures at 37+/−0.1° C. under all conditions. Baseline measurements were taken after 30 minutes of perfusion with the KREB's solution.
After the induced ischemia, control hearts were reperfused using the same Kreb's buffer. Test hearts were reperfused in Kreb's buffer plus 0.3% n-3 TG oil. The test omega-3 (n-3) triglyceride perfusion emulsion used to reperfuse test hearts was prepared using standard industry methods for the production of the therapeutic emulsions in water. A 10% omega-3 triglyceride emulsion was obtained containing 10 ml n-3 triglyceride (TG) that contained 48% fatty acids as EPA or DHA per 100 ml water. This 10% TG emulsion was emulsified by egg yolk lecithin, 1.2 g/100 ml. TG fatty acid (FA) composition (by weight) of the emulsion used in experiments 1-9 was determined by gas liquid chromatography and was as follows for the n-3 emulsion: C14:0, 5.4%; C16:0, 14.8%; C16:1, 8.4%; C18:0, 2.8%; C18:1, 12.7%; C18:2 (n-6), 2.6%; C18:3 (n-3), 0.8%; C20:1, 1.2%; C20:4 (n-6), 1.9%; C20:5 (EPA, n-3), 18.3%; C22:1, 0.2%; C22:4, 0.6%; C22:5, 2.6%; and C22:6 (DPA, n-3), 27.7. To make the test emulsion that was used to reperfuse the isolated hearts after the induced ischemia, 300 mg 10% n-3 TG emulsion was diluted in 100 ml Kreb's perfusion buffer to make a 0.3% n-3 TG perfusion emulsion, referred to in the summary of results as the test n-3 triglyceride reperfusion emulsion. […]
Myocardial injury was assessed by measuring the release of lactate dehydrogenase (LDH) from the effluent in the ex vivo I/R system and from blood samples in the in vivo LAD system, using the commercially available enzymatic kits (Pointe Scientific, INC, MI USA) as published earlier.^1,2 […]

| Compound | LDH release, Rosiglitazone plus n-3 TG treated hearts vs Rosiglitazone treated hearts (Rosiglitazone 6 mg/kg IP 30 min before I/R, n-3 TG during reperfusion) | LDH release compared to n-3 TG I/R (effect on n-3 TG protection) | LDH release (fold change) compared to I/R control (inhibitor alone, from baseline through ischemia and reperfusion, 10 μM LY-294002, 3 μM SB216763) |
| --- | --- | --- | --- |
| CN(CCOc1ccc(CC2SC(=O)NC2=O)cc1)c1ccccn1 (stereo not shown) [Rosiglitazone] | significantly higher | entirely reversed the protective effect of n-3 TG | – |
| O=c1cc(N2CCOCC2)oc2c(-c3ccccc3)cccc12 [LY-294002] | – | abrogated; also recorded: abolished the beneficial effect of n-3 TG | increased LDH |
